These are yes or no findings as the source states them, for the method shown. Binding seen in cells or lysates may run through a third protein. A yes stands for co-enrichment or nearness to the bait. Other partners may have been found.
Legend:
[1] = target: T1, GcdC1, biotin carrier subunit of glutaconyl-CoA decarboxylase (Gcd) from Clostridium symbiosum (Clostridium symbiosum (endogenous in C. symbiosum DSM 934)) (UniProt B7TVP4); assay: affinity purification with mass spectrometry; Gcd solubilized from C. symbiosum membranes with 2% DDM in buffer A (50 mM phosphate pH 7.0, 400 mM NaCl, 0.05% DDM), loaded on monomeric avidin agarose, eluted with a biotin step gradient (0-2 mM); bands of SDS-PAGE identified by MALDI-TOF MS
T1 sequence (chain, biotin covalently bound (C-terminal region)): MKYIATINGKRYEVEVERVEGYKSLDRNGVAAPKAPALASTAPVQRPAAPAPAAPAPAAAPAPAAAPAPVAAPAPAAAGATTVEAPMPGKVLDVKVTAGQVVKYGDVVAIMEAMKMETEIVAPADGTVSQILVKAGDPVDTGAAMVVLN

[2] = target: T2, GcdC2, biotin carrier subunit of glutaconyl-CoA decarboxylase (Gcd) from Clostridium symbiosum (Clostridium symbiosum (endogenous in C. symbiosum DSM 934)) (UniProt B7TVP3); assay: as above
T2 sequence (chain, biotin covalently bound (C-terminal region)): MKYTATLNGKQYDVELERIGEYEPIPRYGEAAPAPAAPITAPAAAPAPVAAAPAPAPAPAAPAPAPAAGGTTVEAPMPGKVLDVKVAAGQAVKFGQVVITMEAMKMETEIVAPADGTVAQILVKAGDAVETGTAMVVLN

B1: GcdB, subunit of glutaconyl-CoA decarboxylase (Gcd) from Clostridium symbiosum (enzyme, UniProt B7TVP5 1-379, looked up)
chain: MNFFEIMGEMLAQSGFTALTWKNLVMFAISFVLLYMAIKKQYEPLLLLPIAFGMFLANLPLADLMKESEPWYTQGVLRIMYGGVKSSLFPCLIFLCVGAMTDFGPLIANPISLLLGAAAQFGIYIAFMLANATGLFTVGEAAAIGIIGGADGPTAIYIANNLAPDLVAPIAVAAYSYMALIPMIQPPIMKLLTTKKERAIVMKQLRKVSKVEKVVFPVFVVLFCSLLLPSVAPLLGMLMLGNLFRESGVVERLSDTAQNALCNIVTIMLGTTVGATANGDIFLRVQTIAIIAMGLMAFCFSTVGGVLLGKLLCVVTGGKINPLIGSAGVSAVPMAARVSQTVGSKENPTNFLLMHAMGPNVAGVIGSAVAAGFFMLIFK
notes: GcdB, membrane-spanning subunit (11 putative transmembrane helices) of glutaconyl-CoA decarboxylase, Clostridium symbiosum, 35 kDa (39 kDa in the introduction)
For B1, which binding [1] is on record?
Its binding is “binds”.

What about the binding [2] of the same binder?
The binding was “binds”.
